From the supplement of paper PMC3682954
Where “and” joins values, the source holds several entries; their conditions need not be identical. Identical values can stand only once. Counter-ions that a name gives are not always drawn. ± gives the standard deviation of the averaged measurements. Some of the results follow. Many values rest on one well or one pass, so single values are uncertain.

System: RAW 264.7
Assay: cell viability (MTT) relative to vehicle control; higher = more viable cells
Conditions: stimulus: HMGB1 5 ug/ml, 18 h
[1] = compound concentration: 1 ug/ml

O=C(Nc1ccccc1)OCC(CN1CCCCC1)OC(=O)Nc1ccccc1 (stereo not given)
cell viability (compound concentration: 3 uM): 95.7%

O=C(Nc1ccccc1)OCC(CN1CCCCC1)OC(=O)Nc1ccccc1 (stereo not given) [Diperodon hydrochloride]
cell viability (compound concentration: 3 uM): 103%

Oc1cc(O)cc(/C=C/c2ccc(O)c(O)c2)c1 [Piceatannol]
cell viability (compound concentration: 3 uM): 101%

Nc1nc(=O)[nH]cc1F
cell viability (compound concentration: 3 uM): 112%

Nc1nc(=O)[nH]cc1F [Flucytosine]
cell viability (compound concentration: 3 uM): 88.7%

Nc1nnc(-c2cccc(Cl)c2Cl)c(N)n1 [Lamotrigine]
cell viability (compound concentration: 3 uM): 96.4 ± 2.8%

Nc1nnc(-c2cccc(Cl)c2Cl)c(N)n1
cell viability (compound concentration: 3 uM): 101 ± 5.3%

CC[C@@]1(O)C(=O)OCc2c1cc1n(c2=O)Cc2cc3c(CN(C)C)c(O)ccc3nc2-1 [Topotecan]
cell viability (compound concentration: 3 uM): 64.3 ± 42%

NC[C@H]1O[C@H](O[C@H]2[C@H](O)[C@@H](O[C@H]3O[C@H](CO)[C@@H](O)[C@H](N)[C@H]3O)[C@H](N)C[C@@H]2N)[C@H](N)[C@@H](O)[C@@H]1O
cell viability (compound concentration: 3 uM): 92.8%

CC(=O)O[C@]1(C(C)=O)CC[C@H]2[C@@H]3C=C(C)C4=CC(=O)CC[C@]4(C)[C@H]3CC[C@@]21C [Megestrol Acetate]
cell viability (compound concentration: 3 uM): 106%

CC(=O)O[C@]1(C(C)=O)CC[C@H]2[C@@H]3C=C(C)C4=CC(=O)CC[C@]4(C)[C@H]3CC[C@@]21C [Megestrol acetate]
cell viability (compound concentration: 3 uM): 108%

CC(=O)O[C@]1(C(C)=O)CC[C@H]2[C@@H]3C=C(C)C4=CC(=O)CC[C@]4(C)[C@H]3CC[C@@]21C
cell viability (compound concentration: 3 uM): 110 ± 12%

COc1cc(C)c(Cc2cnc(N)nc2N)cc1OC
cell viability (compound concentration: 3 uM): 95.4%

Cc1c(C)c2c(c(C)c1O)CCC(C)(CCCC(C)CCCC(C)CCCC(C)C)O2 (stereo not drawn) [alpha-TOCHOPHEROL]
cell viability (compound concentration: 3 uM): 109%

Cc1cccc(C2CN(C)CCc3c2cc(O)c(O)c3Cl)c1 (stereo not given)
cell viability (compound concentration: 3 uM): 122%

Cc1nc(N=Nc2cc(S(=O)(=O)O)c3cc([N+](=O)[O-])cc(S(=O)(=O)O)c3c2)c(COP(=O)(O)O)c(C=O)c1O [PPNDS tetrasodium]
cell viability (compound concentration: 3 uM): 103%

Cc1cccc(C)c1NC(=O)CN1CCN(CCCC(c2ccc(F)cc2)c2ccc(F)cc2)CC1 [Lidoflazine]
cell viability (compound concentration: 3 uM): 95.2%

C#CC1(O)CC[C@H]2[C@@H]3CCC4=CC(=O)CC[C@@H]4[C@H]3CC[C@@]21CC (stereo not given in full)
cell viability (compound concentration: 3 uM): 103%

CC/C=C\C/C=C\C/C=C\CCCCCCCC(=O)O [Linolenic acid]
cell viability [1]: 123%

O=c1c(-c2ccccc2)c1-c1ccccc1 [diphenylcyclopropenone]
cell viability (compound concentration: 3 uM): 70.8%

CC(=O)OC[C@H]1OC=C[C@@H](OC(C)=O)[C@H]1OC(C)=O [3,4,6-Tri-O-acetyl-D-galactal]
cell viability [1]: 99.6%

CCCn1c(=O)c2[nH]c(-c3ccc(OCC(=O)NCCN)cc3)nc2n(CCC)c1=O [Xanthine amine congener]
cell viability (compound concentration: 3 uM): 110%

Cc1ccc(S(=O)(=O)/C=C/C#N)cc1
cell viability (compound concentration: 3 uM): 95.1%

C[C@H](CCC(=O)NCCS(=O)(=O)O)[C@H]1CC[C@H]2[C@@H]3[C@H](O)C[C@@H]4C[C@H](O)CC[C@]4(C)[C@H]3C[C@H](O)[C@]12C [Sodium Taurocholate hydrate]
cell viability (compound concentration: 3 uM): 107%

C[C@H](CCC(=O)NCCS(=O)(=O)O)[C@H]1CC[C@H]2[C@@H]3[C@H](O)C[C@@H]4C[C@H](O)CC[C@]4(C)[C@H]3C[C@H](O)[C@]12C [Taurocholic acid]
cell viability (compound concentration: 3 uM): 102%

CC(C)(C)NCC(O)COc1cccc2c1CC(O)C(O)C2 (stereo not given)
cell viability (compound concentration: 3 uM): 99.4%

CC(C)(C)NCC(O)COc1cccc2c1CC(O)C(O)C2 (stereo not given) [Nadolol]
cell viability (compound concentration: 3 uM): 91.9%

CC1=C(C(=O)O)N2C(=O)[C@@H](NC(=O)[C@H](N)c3ccccc3)[C@H]2SC1 [Cephalexin hydrate]
cell viability (compound concentration: 3 uM): 106%

CC1=C(C(=O)O)N2C(=O)[C@@H](NC(=O)[C@H](N)c3ccccc3)[C@H]2SC1
cell viability (compound concentration: 3 uM): 103%

CC1=C(C(=O)O)N2C(=O)[C@@H](NC(=O)[C@H](N)c3ccccc3)[C@H]2SC1 [Cephalexin monohydrate]
cell viability (compound concentration: 3 uM): 94.9 ± 1.4%

CCCc1c(OCCCOc2ccc(OCC(=O)O)cc2)ccc(C(C)=O)c1O
cell viability (compound concentration: 3 uM): 111%

CC[C@H](C)C(=O)O[C@H]1C[C@H](O)C=C2C=C[C@H](C)[C@H](CC[C@@H](O)C[C@@H](O)CC(=O)O)[C@H]21 [PRAVASTATIN Sodium]
cell viability (compound concentration: 3 uM): 93.6%

CC[C@H](C)C(=O)O[C@H]1C[C@H](O)C=C2C=C[C@H](C)[C@H](CC[C@@H](O)C[C@@H](O)CC(=O)O)[C@H]21
cell viability (compound concentration: 3 uM): 110%

CC[C@H](C)C(=O)O[C@H]1C[C@H](O)C=C2C=C[C@H](C)[C@H](CC[C@@H](O)C[C@@H](O)CC(=O)O)[C@H]21 [Pravastatin]
cell viability (compound concentration: 3 uM): 129%

CCOCCn1c(N2CCCN(C)CC2)nc2ccccc21 [Emedastine]
cell viability (compound concentration: 3 uM): 113%

CN1CC(=O)N=C1NC(=O)Nc1cccc(Cl)c1 [Fenobam]
cell viability (compound concentration: 3 uM): 114%

COc1ccc2c(c1)c(CC(=O)OCC(=O)O)c(C)n2C(=O)c1ccc(Cl)cc1
cell viability (compound concentration: 3 uM): 109%

COc1ccc2c(c1)c(CC(=O)OCC(=O)O)c(C)n2C(=O)c1ccc(Cl)cc1 [Acemetacin]
cell viability (compound concentration: 3 uM): 97.5 ± 6.9%

Cc1c2oc3c(C)ccc(C(=O)N[C@@H]4C(=O)N[C@H](C(C)C)C(=O)N5CCC[C@H]5C(=O)N(C)CC(=O)N(C)[C@@H](C(C)C)C(=O)O[C@@H]4C)c3nc-2c(C(=O)N[C@@H]2C(=O)N[C@H](C(C)C)C(=O)N3CCC[C@H]3C(=O)N(C)CC(=O)N(C)[C@@H](C(C)C)C(=O)O[C@@H]2C)c(N)c1=O
cell viability (compound concentration: 3 uM): 1.56 ± 0.52%

CC(C)CCCC(C)C1CCC2C3CC=C4CC(O)CCC4(C)C3CCC12C (stereo not given)
cell viability [1]: 95.8%

Cc1cc(O)cc2oc(-c3ccccc3)cc(=O)c12 [7-Hydroxy-5-methylflavone]
cell viability [1]: 86.1%

CSc1ccc(OCCN=Cc2c(O)c(O)c(C(C)C)c3cc(C)c(-c4c(C)cc5c(C(C)C)c(O)c(O)c(C=NCCOc6ccc(SC)cc6)c5c4O)c(O)c23)cc1
cell viability [1]: 111%

O=c1c2ccccc2[nH]c(=S)n1CCN1CCC(=C(c2ccc(F)cc2)c2ccc(F)cc2)CC1 [Diacylglycerol Kinase Inhibitor II]
cell viability (compound concentration: 3 uM): 109%

CC(=O)NC[C@H]1CN(c2ccc(N3CCOCC3)c(F)c2)C(=O)O1 [Linezolid]
cell viability (compound concentration: 3 uM): 112 ± 1.8%

CC(=O)NC[C@H]1CN(c2ccc(N3CCOCC3)c(F)c2)C(=O)O1
cell viability (compound concentration: 3 uM): 101%

O=C1C(O)=C(O)C(=O)C(O)=C1O [Tetrahydroxy-1,4-quinone monohydrate]
cell viability (compound concentration: 3 uM): 97.1%

O=C1C(O)=C(O)C(=O)C(O)=C1O
cell viability (compound concentration: 3 uM): 99.1%

NC(=O)c1cc[n+](CC2=C(C(=O)[O-])N3C(=O)[C@@H](NC(=O)Cc4cccs4)[C@H]3SC2)cc1
cell viability (compound concentration: 3 uM): 114%

Cc1nccn1CC1CCc2c(c3ccccc3n2C)C1=O (stereo not given) [Ondansetron Hydrochloride]
cell viability (compound concentration: 3 uM): 87.9%

Cc1nccn1CC1CCc2c(c3ccccc3n2C)C1=O (stereo not given)
cell viability (compound concentration: 3 uM): 99.5%

Cc1nccn1CC1CCc2c(c3ccccc3n2C)C1=O (stereo not given) [Ondansetron]
cell viability (compound concentration: 3 uM): 95%

CC(=O)NCCCCCCNC(C)=O
cell viability (compound concentration: 3 uM): 100%

CC(C)Cn1c(=O)n(C)c(=O)c2nc[nH]c21 [Isobutylmethylxanthine]
cell viability (compound concentration: 3 uM): 112%

OCC(S)CS (stereo not given)
cell viability (compound concentration: 3 uM): 102%

CC[C@@H]1Cc2cc(O)ccc2C2=C1c1ccc(O)cc1C[C@H]2CC [(R,R)-cis-Diethyl tetrahydro-2,8-chrysenediol]
cell viability (compound concentration: 3 uM): 84.3%

Nc1ncnc2c1ncn2[C@H]1CC[C@@H](CO)O1 [2',3'-Dideoxyadenosine]
cell viability [1]: 118%

COc1ccc2cc3[n+](cc2c1OC)CCc1cc2c(cc1-3)OCO2
cell viability (compound concentration: 3 uM): 94.7 ± 17%

CCCCCCCCCCCCCCCC[N+](C)(C)C
cell viability (compound concentration: 3 uM): 79.2%

NC(=O)C1(N2CCCCC2)CCN(CCCC(=O)c2ccc(F)cc2)CC1
cell viability (compound concentration: 3 uM): 107%

CNC1(C)C2CCC(C2)C1(C)C (stereo not given) [Mecamylamine]
cell viability (compound concentration: 3 uM): 101%

CNC1(C)C2CCC(C2)C1(C)C (stereo not given) [Mecamylamine hydrochloride]
cell viability (compound concentration: 3 uM): 104 ± 12%

CNC1(C)C2CCC(C2)C1(C)C (stereo not given)
cell viability (compound concentration: 3 uM): 113%

COc1cc2ccc(=O)oc2cc1OC1OC(COC2OC(C)C(OC(C)=O)C(OC(C)=O)C2OC(C)=O)C(OC(C)=O)C(OC(C)=O)C1OC(C)=O (stereo not given) [Haploperoside C Acetate]
cell viability [1]: 105%

Nc1nccs1
cell viability (compound concentration: 3 uM): 112%

NC(=O)c1cccnc1 [Nicotinamide]
cell viability (compound concentration: 3 uM): 102%

NC(=O)c1cccnc1
cell viability (compound concentration: 3 uM): 108% and 96%

NCCC(=O)N[C@@H](Cc1cnc[nH]1)C(=O)O [L-Carnosine]
cell viability [1]: 99.3%

CCCc1nc(C(C)(C)O)c(C(=O)OCc2oc(=O)oc2C)n1Cc1ccc(-c2ccccc2-c2nnn[nH]2)cc1
cell viability (compound concentration: 3 uM): 101 ± 3%

Cn1c(=O)c2c(ncn2CC(O)CO)n(C)c1=O (stereo not given) [Diprophylline]
cell viability (compound concentration: 3 uM): 102%

Cn1c(=O)c2c(ncn2CC(O)CO)n(C)c1=O (stereo not given)
cell viability (compound concentration: 3 uM): 114%

C=C(NC(=O)C(=C)NC(=O)c1csc(C2=N[C@@H]3c4csc(n4)[C@H]4NC(=O)c5csc(n5)[C@H]([C@](C)(O)[C@@H](C)O)NC(=O)[C@H]5CSC(=N5)/C(=C/C)NC(=O)[C@H]([C@@H](C)O)NC(=O)c5csc(n5)[C@]3(CC2)NC(=O)[C@H](C)NC(=O)C(=C)NC(=O)[C@H](C)NC(=O)[C@H]([C@@H](C)CC)N[C@@H]2C=Cc3c([C@H](C)O)cc(nc3[C@H]2O)C(=O)O[C@@H]4C)n1)C(N)=O [Thiostrepton]
cell viability (compound concentration: 3 uM): 54.3%

CCC(C)(CN(C)C)OC(=O)c1ccccc1 (stereo not given) [Amyleine hydrochloride]
cell viability (compound concentration: 3 uM): 97.3%

C[C@@H]1CC2C3C[C@H](F)C4=CC(=O)C=C[C@]4(C)[C@@]3(F)[C@@H](O)C[C@]2(C)[C@@]1(O)C(=O)COC(=O)C(C)(C)C (stereo not given in full)
cell viability (compound concentration: 3 uM): 117%

CC(=C(CCO)SSCC1CCCO1)N(C=O)Cc1cnc(C)nc1N (stereo in doubt) [Fursultiamine Hydrochloride]
cell viability (compound concentration: 3 uM): 96.8%

COC1C=COC2(C)Oc3c(C)c(O)c4c(O)c(c(C=O)c(O)c4c3C2=O)NC(=O)C(C)=CC=CC(C)C(O)C(C)C(O)C(C)C(OC(C)=O)C1C (stereo not given) [3-formyl Rifamycin SV]
cell viability [1]: 101%
